From the supplement of paper PMC10077471
Over roughly 1,900 compounds, “excess over highest single agent (ExcessHSA) synergy score, 6x6 matrix” has its median near -83; the lowest 2% begin near -370. The list shows a part of the results.

The compounds below were run on NCI-H446 (assay: excess over highest single agent (ExcessHSA) synergy score, 6x6 matrix; higher = less synergy (more negative = stronger synergy)). Conditions: 72 h; CellTiter-Glo viability.

SMILES	excess over highest single agent
CCOC(CN1C(=O)[C@](CC(=O)Nc2ccc(C)cc2)(NC(=O)Nc2ccc(C)cc2)c2ccccc21)OCC + Cc1sc2c(c1C)C(c1ccc(Cl)cc1)=N[C@@H](CC(=O)OC(C)(C)C)c1nnc(C)n1-2 [NCGC00250412-19]	-94.2
Cc1nnc(NS(=O)(=O)c2ccc(N)cc2)s1 + Cc1sc2c(c1C)C(c1ccc(Cl)cc1)=N[C@@H](CC(=O)OC(C)(C)C)c1nnc(C)n1-2 [NCGC00250412-19]	-94.8
FC(F)c1nc2ccccc2n1-c1nc(N2CCOCC2)nc(N2CCOCC2)n1 + Cc1sc2c(c1C)C(c1ccc(Cl)cc1)=N[C@@H](CC(=O)OC(C)(C)C)c1nnc(C)n1-2 [NCGC00250412-19]	-356
C[C@@H]1O[C@@H](O[C@H]2C[C@@H](O)[C@]3(CO)[C@H]4[C@H](O)C[C@]5(C)[C@@H](C6=CC(=O)OC6)CC[C@]5(O)[C@@H]4CC[C@]3(O)C2)[C@H](O)[C@H](O)[C@H]1O + Cc1sc2c(c1C)C(c1ccc(Cl)cc1)=N[C@@H](CC(=O)OC(C)(C)C)c1nnc(C)n1-2 [NCGC00250412-19]	-71.9
C[C@@H]1C[C@H]2[C@@H]3CCC4=CC(=O)C=C[C@]4(C)[C@@]3(F)[C@@H](O)C[C@]2(C)[C@@]1(O)C(=O)CO + Cc1sc2c(c1C)C(c1ccc(Cl)cc1)=N[C@@H](CC(=O)OC(C)(C)C)c1nnc(C)n1-2 [NCGC00250412-19]	111
CCCCC(C)(C)[C@H](O)/C=C/[C@H]1[C@H](O)CC(=O)[C@@H]1C/C=C\CCCC(=O)O + Cc1sc2c(c1C)C(c1ccc(Cl)cc1)=N[C@@H](CC(=O)OC(C)(C)C)c1nnc(C)n1-2 [NCGC00250412-19]	-119
CC(C)Oc1ccc(C(=O)N[C@H](CNC(=O)CN(C)C)Cc2ccc(-c3cn4cccc([C@H](C)O)c4n3)cc2)cc1Cl + Cc1sc2c(c1C)C(c1ccc(Cl)cc1)=N[C@@H](CC(=O)OC(C)(C)C)c1nnc(C)n1-2 [NCGC00250412-19]	-255
Cc1cnc(NC(=O)C2=C(O)c3ccccc3S(=O)(=O)N2C)s1 + Cc1sc2c(c1C)C(c1ccc(Cl)cc1)=N[C@@H](CC(=O)OC(C)(C)C)c1nnc(C)n1-2 [NCGC00250412-19]	33.4
CC1(C)O[C@@H]2C[C@H]3[C@@H]4CCC5=CC(=O)C=C[C@]5(C)[C@@]4(F)[C@@H](O)C[C@]3(C)[C@]2(C(=O)CO)O1 + Cc1sc2c(c1C)C(c1ccc(Cl)cc1)=N[C@@H](CC(=O)OC(C)(C)C)c1nnc(C)n1-2 [NCGC00250412-19]	69.3
Cc1nc(=O)c2cc(CN(C)c3ccc(C(=O)N[C@@H](CCC(=O)O)C(=O)O)s3)ccc2[nH]1 + Cc1sc2c(c1C)C(c1ccc(Cl)cc1)=N[C@@H](CC(=O)OC(C)(C)C)c1nnc(C)n1-2 [NCGC00250412-19]	-297
CCN(c1ccccc1)c1cc(NC)[n+](C)c(C)n1 + Cc1sc2c(c1C)C(c1ccc(Cl)cc1)=N[C@@H](CC(=O)OC(C)(C)C)c1nnc(C)n1-2 [NCGC00250412-19]	-39.7
CN1CCN(CCCN2c3ccccc3Sc3ccc(Cl)cc32)CC1 + Cc1sc2c(c1C)C(c1ccc(Cl)cc1)=N[C@@H](CC(=O)OC(C)(C)C)c1nnc(C)n1-2 [NCGC00250412-19]	-339
CN(C)C[C@@H]1CCn2cc(c3ccccc32)C2=C(C(=O)NC2=O)c2cn(c3ccccc23)CCO1 + Cc1sc2c(c1C)C(c1ccc(Cl)cc1)=N[C@@H](CC(=O)OC(C)(C)C)c1nnc(C)n1-2 [NCGC00250412-19]	-125
CC(/C=C1\SC(=S)N(CC(=O)O)C1=O)=C\c1ccccc1 + Cc1sc2c(c1C)C(c1ccc(Cl)cc1)=N[C@@H](CC(=O)OC(C)(C)C)c1nnc(C)n1-2 [NCGC00250412-19]	-68.5
c1ccc(CNc2nc(NCc3ccccc3)c3ccccc3n2)cc1 + Cc1sc2c(c1C)C(c1ccc(Cl)cc1)=N[C@@H](CC(=O)OC(C)(C)C)c1nnc(C)n1-2 [NCGC00250412-19]	-153
CC(=O)[C@]1(O)Cc2c(O)c3c(c(O)c2[C@@H](O[C@H]2C[C@H](N)[C@H](O)[C@H](C)O2)C1)C(=O)c1ccccc1C3=O + Cc1sc2c(c1C)C(c1ccc(Cl)cc1)=N[C@@H](CC(=O)OC(C)(C)C)c1nnc(C)n1-2 [NCGC00250412-19]	-362
CS(=O)(=O)N1CCc2c(-c3cnc(N)nc3)nc(N3CCOCC3)nc21 + Cc1sc2c(c1C)C(c1ccc(Cl)cc1)=N[C@@H](CC(=O)OC(C)(C)C)c1nnc(C)n1-2 [NCGC00250412-19]	-391
Cc1ccc2c(c1)C(=O)C1(O)CCN(c3ccccc3)C1=N2 (configuration not stated) + Cc1sc2c(c1C)C(c1ccc(Cl)cc1)=N[C@@H](CC(=O)OC(C)(C)C)c1nnc(C)n1-2 [NCGC00250412-19]	-126
Nc1cc(C(Cl)=C(Cl)Cl)c(S(N)(=O)=O)cc1S(N)(=O)=O + Cc1sc2c(c1C)C(c1ccc(Cl)cc1)=N[C@@H](CC(=O)OC(C)(C)C)c1nnc(C)n1-2 [NCGC00250412-19]	-60.6

SMILES	excess over highest single agent
CN1CCN(c2c(F)cc3c(=O)c(C(=O)O)cn(CCF)c3c2F)CC1 + Cc1sc2c(c1C)C(c1ccc(Cl)cc1)=N[C@@H](CC(=O)OC(C)(C)C)c1nnc(C)n1-2 [NCGC00250412-19]	-106
C[C@H](CCC(=O)O)[C@H]1CC[C@H]2[C@@H]3[C@H](O)C[C@@H]4C[C@H](O)CC[C@]4(C)[C@H]3CC[C@]12C + Cc1sc2c(c1C)C(c1ccc(Cl)cc1)=N[C@@H](CC(=O)OC(C)(C)C)c1nnc(C)n1-2 [NCGC00250412-19]	-86.1
C=CC(=O)Nc1cccc(Oc2nc(Nc3ccc(N4CCN(C)CC4)cc3OC)ncc2Cl)c1 + Cc1sc2c(c1C)C(c1ccc(Cl)cc1)=N[C@@H](CC(=O)OC(C)(C)C)c1nnc(C)n1-2 [NCGC00250412-19]	-270
NNc1nncc2ccccc12 + Cc1sc2c(c1C)C(c1ccc(Cl)cc1)=N[C@@H](CC(=O)OC(C)(C)C)c1nnc(C)n1-2 [NCGC00250412-19]	-4.09
CC(=O)OCC(CCn1cnc2cnc(N)nc21)COC(C)=O + Cc1sc2c(c1C)C(c1ccc(Cl)cc1)=N[C@@H](CC(=O)OC(C)(C)C)c1nnc(C)n1-2 [NCGC00250412-19]	-148
O=c1[nH]c2ccccc2n1C1CCN(Cc2ccc(-c3[nH]c4cc5ncnc5cc4nc3-c3ccccc3)cc2)CC1 + Cc1sc2c(c1C)C(c1ccc(Cl)cc1)=N[C@@H](CC(=O)OC(C)(C)C)c1nnc(C)n1-2 [NCGC00250412-19]	42.7
C[C@@H]1CCN(C(=O)CC#N)C[C@@H]1N(C)c1ncnc2[nH]ccc12 + Cc1sc2c(c1C)C(c1ccc(Cl)cc1)=N[C@@H](CC(=O)OC(C)(C)C)c1nnc(C)n1-2 [NCGC00250412-19]	169
O=c1[nH]c(=O)n(C2CCCO2)cc1F (configuration not stated) + Cc1sc2c(c1C)C(c1ccc(Cl)cc1)=N[C@@H](CC(=O)OC(C)(C)C)c1nnc(C)n1-2 [NCGC00250412-19]	144
CCC(C)N(C)C(=O)c1cc2ccccc2c(-c2ccccc2Cl)n1 (configuration not stated) + Cc1sc2c(c1C)C(c1ccc(Cl)cc1)=N[C@@H](CC(=O)OC(C)(C)C)c1nnc(C)n1-2 [NCGC00250412-19]	-144
CC(C=CC(=O)NO)=C[C@@H](C)C(=O)c1ccc(N(C)C)cc1 + Cc1sc2c(c1C)C(c1ccc(Cl)cc1)=N[C@@H](CC(=O)OC(C)(C)C)c1nnc(C)n1-2 [NCGC00250412-19]	-187
COc1ccc([C@]2(C#N)CC[C@@H](C(=O)O)CC2)cc1OC1CCCC1 + Cc1sc2c(c1C)C(c1ccc(Cl)cc1)=N[C@@H](CC(=O)OC(C)(C)C)c1nnc(C)n1-2 [NCGC00250412-19]	151
COCC[n+]1c2c(n(Cc3cnccn3)c1C)C(=O)c1ccccc1C2=O + Cc1sc2c(c1C)C(c1ccc(Cl)cc1)=N[C@@H](CC(=O)OC(C)(C)C)c1nnc(C)n1-2 [NCGC00250412-19]	-336
C[C@H]1C[C@@H]2[C@H]([C@@H](O)C[C@@]3(C)[C@H]2CC[C@]3(O)C(=O)CO)[C@@]2(C)C=CC(=O)C=C12 + Cc1sc2c(c1C)C(c1ccc(Cl)cc1)=N[C@@H](CC(=O)OC(C)(C)C)c1nnc(C)n1-2 [NCGC00250412-19]	86.8
CCCNCC(O)COc1ccccc1C(=O)CCc1ccccc1 (configuration not stated) + Cc1sc2c(c1C)C(c1ccc(Cl)cc1)=N[C@@H](CC(=O)OC(C)(C)C)c1nnc(C)n1-2 [NCGC00250412-19]	-355
COc1cc([C@@H]2c3cc4c(cc3[C@@H](O[C@@H]3O[C@@H]5CO[C@@H](C)O[C@H]5[C@H](O)[C@H]3O)[C@H]3COC(=O)[C@H]23)OCO4)cc(OC)c1O + Cc1sc2c(c1C)C(c1ccc(Cl)cc1)=N[C@@H](CC(=O)OC(C)(C)C)c1nnc(C)n1-2 [NCGC00250412-19]	51.1
COc1ccccc1OCC(O)CN1CCN(CC(=O)Nc2c(C)cccc2C)CC1 (configuration not stated) + Cc1sc2c(c1C)C(c1ccc(Cl)cc1)=N[C@@H](CC(=O)OC(C)(C)C)c1nnc(C)n1-2 [NCGC00250412-19]	-107
COc1nccc(-c2c(-c3ccc(F)cc3)ncn2C2CCNCC2)n1 + Cc1sc2c(c1C)C(c1ccc(Cl)cc1)=N[C@@H](CC(=O)OC(C)(C)C)c1nnc(C)n1-2 [NCGC00250412-19]	-55.9
CN(C)c1nc(N(C)C)nc(N(C)C)n1 + Cc1sc2c(c1C)C(c1ccc(Cl)cc1)=N[C@@H](CC(=O)OC(C)(C)C)c1nnc(C)n1-2 [NCGC00250412-19]	-40.3

Some of the entries so far, with bars between the fields:
SMILES | excess over highest single agent
CC(=O)OCC(CCn1cnc2cnc(N)nc21)COC(C)=O + Cc1sc2c(c1C)C(c1ccc(Cl)cc1)=N[C@@H](CC(=O)OC(C)(C)C)c1nnc(C)n1-2 [NCGC00250412-19] | -148
COCC[n+]1c2c(n(Cc3cnccn3)c1C)C(=O)c1ccccc1C2=O + Cc1sc2c(c1C)C(c1ccc(Cl)cc1)=N[C@@H](CC(=O)OC(C)(C)C)c1nnc(C)n1-2 [NCGC00250412-19] | -336
